Procedure: (1) Leakage tests (without current) using dye and silicone rubber than skin; (2) leakage tests using dye and skin (without current); and (3) iontophoretic tests using the drug solutions and skin (with and without current). Procedures (1) and (2) were evaluated by visually inspecting the cell. […] The activity of the skin 13 and of the samples taken from the receptor chamber was determined post-experimentally. Each experiment lasts approximately 24 hours, ±2 hours, with samples collected hourly. Receptor fluid 17 was magnetically stirred (27), and the collection flow rate was 10 ml/hr.

CN1CC[C@]23c4c5ccc(O)c4O[C@H]2[C@@H](O)C=C[C@H]3[C@H]1C5.O=S(=O)(O)O [morphine sulfate, Morphine sulfate]
Amount of labelled drug in the buffered saline of chamber 16C: 1 µg

From patent publication US5279543A, “Device for iontophoretic non-invasive sampling or delivery of substances” (priority 1992, dated 1994)
